Laboratory results reported in patent US8138219B2, “Tryptamine sulfonamides as 5-HT6 antagonists” (Merck Sharp & Dohme Corp., priority 2007, dated 2012).
Some results were stated once for a whole list of compounds, not compound by compound.

The chains behind the UniProt entries cited, without tags or fusion partners.
UniProt P50406, whole entry: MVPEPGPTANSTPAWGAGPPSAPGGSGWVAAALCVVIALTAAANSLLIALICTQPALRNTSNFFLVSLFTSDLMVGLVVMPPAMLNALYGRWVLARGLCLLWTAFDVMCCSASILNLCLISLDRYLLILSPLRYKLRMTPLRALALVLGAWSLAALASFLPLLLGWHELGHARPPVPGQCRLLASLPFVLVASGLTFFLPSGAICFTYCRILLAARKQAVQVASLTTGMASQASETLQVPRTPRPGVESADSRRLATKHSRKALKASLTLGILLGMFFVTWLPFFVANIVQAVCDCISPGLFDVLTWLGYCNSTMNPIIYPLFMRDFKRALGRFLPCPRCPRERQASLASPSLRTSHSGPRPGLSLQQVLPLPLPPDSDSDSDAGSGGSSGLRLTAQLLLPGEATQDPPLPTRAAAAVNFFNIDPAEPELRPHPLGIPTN

Each compound was assayed against T1, Human 5-HT6 (Homo sapiens, UniProt P50406) (assay: 5-HT6 receptor binding assay ([3H]5-HT displacement, SPA), human receptor). Settings: read-out: IC50 values for the human 5-HT6 receptor; 5-HT6 binding assay, bound stated.
T1 construct: expressed in transfected cells
Protocol: 5-HT6 Receptor Binding Assay
Affinity (IC50) of a compound for cloned human, rat, or mouse 5-HT6 receptor was measured by its ability to displace [^3H]5-HT using cell membranes prepared from cultured cells and scintillation proximity assay (SPA) beads that bind to cell membranes (Catalog No. RPNQ0001; GE Healthcare Life Sciences, Piscataway, N.J.). Assays were carried out in 200 μl binding buffer (50 mM Tris-HCl, pH 7.4, 5 mM MgCl2, 0.5 mM EDTA, 10 μM pargyline and 0.1% ascorbic acid) in 96-well plates. Cell membranes were re-suspended in binding buffer to final concentration of up to 0.2 mg protein/ml and mixed with reconstituted SPA beads to a final concentration of 0.25 mg/ml. To each well, […] of above mixture, 50 of cold compound (to 10^−10 to 10^−5 M final concentration) and 50 μl of [^3H]5-HT radioligand (specific activity, 100 Ci/mmol, GE Healthcare Life Sciences; final concentration, 5 nM) were added. Following 1 h incubation at room temperature, the radioactivity bound to the cell membranes was measured on a scintillation counter.

| Structure (SMILES) | IC50 |
| --- | --- |
| O=S(=O)(c1ccc(OC(F)(F)F)cc1)n1cc(CCNCc2cccc(OCC(F)(F)C(F)F)c2)c2ccc(F)cc21 [Example 2] | < 5 µM |
| O=S(=O)(c1ccc(F)cc1)n1cc(CCNCc2cccc(OCC(F)(F)C(F)F)c2)c2ccc(F)cc21 [Example 6] | < 5 µM |
| CS(=O)(=O)n1cc(CCNCc2cccc(OCC(F)(F)C(F)F)c2)c2ccc(F)cc21 [Example 12] | < 5 µM |
| CCS(=O)(=O)n1cc(CCNCc2cccc(OCC(F)(F)C(F)F)c2)c2ccc(F)cc21 [Example 13] | < 5 µM |
